This experiment has as its target NF-κB p65 (human (endogenous in HaCaT)) (UniProt Q04206). Put plainly: co-IP; IP with an anti-p65 antibody (1:100) from RIPA lysates of confluent α-catenin-knockdown HaCaT cells (compared with cells without the knockdown), pre-cleared, overnight at 4°C, protein A/G beads; blotted with an NBPF antibody and an NBPF7-specific antibody.

By UniProt entry, the sequences of proteins in these tests, tags left out.
UniProt Q04206: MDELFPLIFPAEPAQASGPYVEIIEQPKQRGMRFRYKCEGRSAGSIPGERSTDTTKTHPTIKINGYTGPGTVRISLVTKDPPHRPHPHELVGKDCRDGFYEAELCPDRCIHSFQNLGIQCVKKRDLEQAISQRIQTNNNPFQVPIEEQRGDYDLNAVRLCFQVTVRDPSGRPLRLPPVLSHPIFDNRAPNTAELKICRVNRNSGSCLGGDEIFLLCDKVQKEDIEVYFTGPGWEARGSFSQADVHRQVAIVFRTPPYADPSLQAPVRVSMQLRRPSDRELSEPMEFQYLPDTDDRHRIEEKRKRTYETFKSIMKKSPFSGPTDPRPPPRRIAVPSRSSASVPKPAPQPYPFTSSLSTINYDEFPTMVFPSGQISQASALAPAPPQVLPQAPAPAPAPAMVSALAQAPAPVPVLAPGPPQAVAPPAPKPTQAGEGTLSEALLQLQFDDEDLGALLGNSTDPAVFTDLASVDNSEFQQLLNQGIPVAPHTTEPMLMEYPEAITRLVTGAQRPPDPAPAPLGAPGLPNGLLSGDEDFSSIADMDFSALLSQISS

These are yes or no findings as the source states them, for the method shown. Binding seen in cells or lysates may run through a third protein. Some results given as binding are weak or reduced against the parent protein; the word gives no strength.

B1: NBPF7 (neuroblastoma breakpoint family member 7) (protein, UniProt P0C2Y1 1-421)
chain: MCLRFFSPVPGSTSSATNVTMVVSAGPWSSEKAEMNILEINEKLRPQLAENKQQFRNMKQKFLVTQMAGFLANQQNKYKYEECKDLIKSMLREELQFKEEKLAEQLKQAEELRQYKVLVHSQERELIQLREKLREGRDASHSLNQHLQALLTPDKHDNSQGQDFREQLAEGCRLARHLVHKLSPENDTDEDENDKTKELDKVQESPAPREEQKAEEKEVPEDSLEECAITYSNSHGPSDSNPPHKNIKITSEEDKVNSILVVDSESSQDEWQDALNILLENQNDDEEEEGKAPVPPQVTLWICGLKLQESEEKEVLQDSPEERVTTSCSDHDVSQSYQPCEGTFLALVEQKVCSAQDVASEHSNSKGEETPLGFPDTKYCWKDEKDERMSQKVAFLLDEKNYNSKPSSIPNTTLQGSFTED
B1: the binding entry is on record as “binds”.

For the origin of these results see PMC5630373.
